Assay results from PMC12516318.
No constants are given. Whether binding was seen depends on the method and setting. In cells and extracts the contact can be indirect. Some entries that bind do so weakly or less than the wild type. For part of these data: Tags and fused reporters may be left off the sequences shown.

The chains behind the UniProt entries cited, without tags or fusion partners.
UniProt O18334: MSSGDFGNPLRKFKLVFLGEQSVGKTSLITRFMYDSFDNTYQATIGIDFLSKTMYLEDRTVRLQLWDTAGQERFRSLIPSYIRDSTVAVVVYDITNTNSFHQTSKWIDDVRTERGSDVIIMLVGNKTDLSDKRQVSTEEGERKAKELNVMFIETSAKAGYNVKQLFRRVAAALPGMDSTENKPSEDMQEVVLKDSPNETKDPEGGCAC

How the values were obtained:
Assay in all cases: co-IP; GFP-Trap agarose beads (Chromotek), overnight, on lysates of 100 adult heads co-expressing Spir::tdTom and a GFP fusion (nSyb-GAL4); lysis buffer 50 mM Tris pH 8.0, 150 mM KCl, 1 mM MgCl2, 1 mM EGTA, protease inhibitors, 10% glycerol; lysates treated with deoxycholic acid and Triton X-100; immunoblots for GFP and tdTom
[1] = target: T1, Rab11::GFP (Drosophila) (UniProt O18335)
T1 sequence: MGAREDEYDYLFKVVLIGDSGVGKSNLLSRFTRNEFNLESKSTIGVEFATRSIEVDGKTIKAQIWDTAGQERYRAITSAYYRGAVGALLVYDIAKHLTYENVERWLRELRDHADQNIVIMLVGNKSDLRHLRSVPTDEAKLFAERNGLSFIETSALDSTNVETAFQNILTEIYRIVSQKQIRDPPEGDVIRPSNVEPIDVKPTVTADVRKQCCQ

[2] = target: T2, Capu::GFP (Cappuccino, Fmn-family formin) (Drosophila) (UniProt Q24120)
T2 sequence: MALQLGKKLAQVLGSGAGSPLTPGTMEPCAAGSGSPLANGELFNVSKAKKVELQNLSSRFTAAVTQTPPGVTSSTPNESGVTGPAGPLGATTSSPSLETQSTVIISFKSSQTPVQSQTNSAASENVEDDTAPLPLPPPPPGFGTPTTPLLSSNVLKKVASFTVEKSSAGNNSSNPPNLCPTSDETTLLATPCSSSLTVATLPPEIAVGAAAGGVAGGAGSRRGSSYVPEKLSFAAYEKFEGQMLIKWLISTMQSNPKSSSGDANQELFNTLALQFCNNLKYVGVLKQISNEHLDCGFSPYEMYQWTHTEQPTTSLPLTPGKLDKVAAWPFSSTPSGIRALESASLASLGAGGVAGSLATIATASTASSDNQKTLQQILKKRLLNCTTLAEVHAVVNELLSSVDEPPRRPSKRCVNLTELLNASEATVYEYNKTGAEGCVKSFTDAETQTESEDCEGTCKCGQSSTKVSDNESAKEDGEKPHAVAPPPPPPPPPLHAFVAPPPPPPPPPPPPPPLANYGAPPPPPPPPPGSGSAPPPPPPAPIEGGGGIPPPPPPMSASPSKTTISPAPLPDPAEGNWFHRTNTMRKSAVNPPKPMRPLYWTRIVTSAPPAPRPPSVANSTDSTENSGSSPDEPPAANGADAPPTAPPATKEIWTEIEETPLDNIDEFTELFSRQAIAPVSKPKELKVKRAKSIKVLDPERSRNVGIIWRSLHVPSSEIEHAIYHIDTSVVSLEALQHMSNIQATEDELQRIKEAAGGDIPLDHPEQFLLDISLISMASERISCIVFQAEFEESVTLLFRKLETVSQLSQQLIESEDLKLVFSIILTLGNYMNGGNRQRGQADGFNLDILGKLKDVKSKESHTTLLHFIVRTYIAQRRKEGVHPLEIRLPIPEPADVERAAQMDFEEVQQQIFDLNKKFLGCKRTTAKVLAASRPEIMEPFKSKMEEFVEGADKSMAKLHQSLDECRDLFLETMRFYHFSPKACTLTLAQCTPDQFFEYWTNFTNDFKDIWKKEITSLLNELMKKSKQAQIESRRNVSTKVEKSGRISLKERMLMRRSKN

[3] = target: Rab6::GFP (Drosophila) (UniProt O18334)

binding [1]: binds
binding [2]: binds
binding [3]: no binding
B1: Spir::tdTom (full-length Spire with C-terminal tdTomato) (protein, UniProt Q9U1K1 1-1020)
chain: MTEHQAEEQADTPPTKVKATPTPTPSGKFKDAKEDAFLSTSPDSANGDAQHKLPADQLAMSSSAHPQQAGQARPLILQAFHRCSSPEQCVTLHDILDSFKAPLSEDQAWALIHQFAGLYHQVAVQAHTCAADYEAALPTGFELHFHRDGSVHFSGPDQLTPKEQLQQEQIPLPPQHDVIVDQPDHSASSSGDSSVINRAFDNSNHHHHHQHHHPPLVVSHRKIISELAEIVYTALDYNLPEDEECQVSQELENLFNFMTADETDDDCIDEGIDEGDKRWDDESEEERNDTKELEHIIETCRNHIKTTLPENHYRAVCRALVTETIELRVFLQQVLNNEAGAEKLIKASESSATTQQELAKLGFNDWARFWVQVIDELRRGVRLKKSNHERTPIEYELTPYEILMGDIRAKKYQLRKVMVNGDIPPRVKKDAHAMILEFIRSRPPLKKASDRQLGPPRMCEPSPREQLMESIRKGKELKQITPPEAPTLRERVLPSANSTLSRSRQRLIKVDFSKFQDDDLFYDENSISSSHSTAATHQHHPHFAEMHRCSQPKMPPYPFGGYMVPSQARQDCRETASLMRPRRTMEPAKQVPPPEEPSFTKDEYHKFYDTALESYDLATQCESRRASLRRHTIVGCQSNLDETHSMPPTRPESRQSDDVSKETPKRSPAEQTHPSDEGSSTSSLGPWNKSFMDKQTWMERGDDRLSVTLAEIVHIRSVMTKAELEGLPMDVRVKEDVEKRRVCFLCLRTRFSFFGPWGIQCKLCQRTVCAKCYTKMRIPSEHFRNVPLVLISPSLLSSPASSSTPSPSHHAQQAHSSSTGNIMDDQFPKSLIERLLRSESDRKTRSTVGSAPSSPKHQRSNMSTPGISVGPGASSSSAAATGQAVEALHDQATMSSSYSAAMRPSGVHQQQKQHYNNAMSRSMEGPRSLPVHSPAYRPLSNNSTLERKSRFSRGFNLFSSGSHLAQTQEQKENLRGEQVTVCNDCQGLVNEITSSVKQKRSSARNRTIQNLTLDLTPVWK
